Measured values as given in patent US8466167B2, “Compounds and compositions as TLR activity modulators” (IRM LLC, priority 2008, dated 2013).
Some results were stated once for a whole list of compounds, not compound by compound. Some compounds share one range, which may span the group rather than tell each member.

Test system: toll-like receptors
Assay: in vitro tests described in this application (assay not specified)
Assay type: cell-based, human
Conditions: read-out: EC50 values, lower bound in nM, upper bound in μM

Structure (SMILES)	EC50 [nM]
CCOP(=O)(CCCOCCOCCOc1ccc(CCc2cnc3c(N)nc4cc(C)ccc4c3c2)c(C)c1)OCC [diethyl 3-(2-(2-(4-(2-(5-amino-8-methylbenzo[f][1,7]naphthyridin-2-yl)ethyl)-3-methylphenoxy)ethoxy)ethoxy)propylphosphonate]	1 to 200000
CCOP(=O)(CCCOCCOc1ccc(CCc2cnc3c(N)nc4cc(C)ccc4c3c2)c(C)c1)OCC [diethyl 3-(2-(4-(2-(5-amino-8-methylbenzo[f][1,7]naphthyridin-2-yl)ethyl)-3-methylphenoxy)ethoxy)propylphosphonate]	1 to 200000
CCOP(=O)(CCCOc1ccc(CCc2cnc3c(N)nc4cc(C)ccc4c3c2)c(C)c1)OCC [diethyl 3-(4-(2-(5-amino-8-methylbenzo[f][1,7]naphthyridin-2-yl)ethyl)-3-methylphenoxy)propylphosphonate]	1 to 200000
